The list shows a part of the results.
What was measured:
Experiment in all cases: log2 fold change, soluble protein after heating vs DMSO (PISA); higher = thermal stabilisation; K562 lysate, 10 uM; active = over 0.2 and 3.5 SD of the protein, either way, in both replicates (recomputed)
erlotinib = compound: C#Cc1cccc(Nc2ncnc3cc(OCCOC)c(OCCOC)cc23)c1 [erlotinib]
Method in brief: (§1)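 Dounce homogenisation of K562 pellets in PBS pH 7.4 with 1 mM MgCl2 produced a crude extract, used at 1 mg/mL protein. Exposure to 10 μM compound lasted 30 min, and aliquots were then heated for 3 min across 48°C-58°C, pooled and brought to 0.5% NP-40 at 4°C. The supernatant after 21,000xg for 90 min was quantified by TMTpro 16plex LC-MS/MS with channel sums equalised. Duplicate values are given as log-two fold change in thermal stability relative to solvent controls.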

Protein sequences, listed by entry. Tags and fused reporters are not part of them. Lines headed by an entry give the natural chain unless they say otherwise; changes in a name come on top.
UniProt P18440: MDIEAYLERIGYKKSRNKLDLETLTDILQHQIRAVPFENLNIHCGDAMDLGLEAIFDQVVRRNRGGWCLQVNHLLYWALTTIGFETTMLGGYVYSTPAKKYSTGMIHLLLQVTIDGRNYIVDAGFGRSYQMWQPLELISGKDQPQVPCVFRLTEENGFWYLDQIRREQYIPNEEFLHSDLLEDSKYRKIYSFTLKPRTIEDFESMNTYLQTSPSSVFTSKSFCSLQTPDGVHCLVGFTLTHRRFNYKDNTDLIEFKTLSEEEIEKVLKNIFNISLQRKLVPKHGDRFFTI
UniProt Q6P582, whole entry, looked up: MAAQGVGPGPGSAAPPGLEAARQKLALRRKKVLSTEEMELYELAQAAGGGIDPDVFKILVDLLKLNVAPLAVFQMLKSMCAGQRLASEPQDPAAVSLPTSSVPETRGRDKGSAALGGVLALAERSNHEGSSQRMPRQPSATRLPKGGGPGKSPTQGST
UniProt P54920: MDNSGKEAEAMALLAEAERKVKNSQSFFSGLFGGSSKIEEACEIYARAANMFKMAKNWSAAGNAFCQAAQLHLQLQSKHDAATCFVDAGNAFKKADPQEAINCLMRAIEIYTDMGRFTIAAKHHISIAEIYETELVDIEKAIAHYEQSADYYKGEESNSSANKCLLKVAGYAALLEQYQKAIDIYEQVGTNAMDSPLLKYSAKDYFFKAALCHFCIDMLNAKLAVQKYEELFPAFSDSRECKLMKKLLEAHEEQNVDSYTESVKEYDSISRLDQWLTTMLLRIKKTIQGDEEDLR
UniProt Q02083: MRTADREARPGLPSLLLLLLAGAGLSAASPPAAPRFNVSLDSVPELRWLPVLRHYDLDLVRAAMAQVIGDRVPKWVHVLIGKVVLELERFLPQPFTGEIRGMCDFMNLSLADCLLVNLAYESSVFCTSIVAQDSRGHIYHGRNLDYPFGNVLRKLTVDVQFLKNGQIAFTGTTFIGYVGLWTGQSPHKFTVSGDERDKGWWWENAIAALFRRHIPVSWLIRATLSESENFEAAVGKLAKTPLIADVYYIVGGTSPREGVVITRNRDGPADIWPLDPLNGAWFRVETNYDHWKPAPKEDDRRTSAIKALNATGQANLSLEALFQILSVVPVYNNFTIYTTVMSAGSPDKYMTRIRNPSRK
UniProt P12829: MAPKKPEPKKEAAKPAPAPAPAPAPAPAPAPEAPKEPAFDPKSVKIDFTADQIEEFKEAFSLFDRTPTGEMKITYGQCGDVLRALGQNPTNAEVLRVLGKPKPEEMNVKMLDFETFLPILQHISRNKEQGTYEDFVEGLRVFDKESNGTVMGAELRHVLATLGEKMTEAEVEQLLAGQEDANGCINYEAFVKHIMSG
UniProt Q15788: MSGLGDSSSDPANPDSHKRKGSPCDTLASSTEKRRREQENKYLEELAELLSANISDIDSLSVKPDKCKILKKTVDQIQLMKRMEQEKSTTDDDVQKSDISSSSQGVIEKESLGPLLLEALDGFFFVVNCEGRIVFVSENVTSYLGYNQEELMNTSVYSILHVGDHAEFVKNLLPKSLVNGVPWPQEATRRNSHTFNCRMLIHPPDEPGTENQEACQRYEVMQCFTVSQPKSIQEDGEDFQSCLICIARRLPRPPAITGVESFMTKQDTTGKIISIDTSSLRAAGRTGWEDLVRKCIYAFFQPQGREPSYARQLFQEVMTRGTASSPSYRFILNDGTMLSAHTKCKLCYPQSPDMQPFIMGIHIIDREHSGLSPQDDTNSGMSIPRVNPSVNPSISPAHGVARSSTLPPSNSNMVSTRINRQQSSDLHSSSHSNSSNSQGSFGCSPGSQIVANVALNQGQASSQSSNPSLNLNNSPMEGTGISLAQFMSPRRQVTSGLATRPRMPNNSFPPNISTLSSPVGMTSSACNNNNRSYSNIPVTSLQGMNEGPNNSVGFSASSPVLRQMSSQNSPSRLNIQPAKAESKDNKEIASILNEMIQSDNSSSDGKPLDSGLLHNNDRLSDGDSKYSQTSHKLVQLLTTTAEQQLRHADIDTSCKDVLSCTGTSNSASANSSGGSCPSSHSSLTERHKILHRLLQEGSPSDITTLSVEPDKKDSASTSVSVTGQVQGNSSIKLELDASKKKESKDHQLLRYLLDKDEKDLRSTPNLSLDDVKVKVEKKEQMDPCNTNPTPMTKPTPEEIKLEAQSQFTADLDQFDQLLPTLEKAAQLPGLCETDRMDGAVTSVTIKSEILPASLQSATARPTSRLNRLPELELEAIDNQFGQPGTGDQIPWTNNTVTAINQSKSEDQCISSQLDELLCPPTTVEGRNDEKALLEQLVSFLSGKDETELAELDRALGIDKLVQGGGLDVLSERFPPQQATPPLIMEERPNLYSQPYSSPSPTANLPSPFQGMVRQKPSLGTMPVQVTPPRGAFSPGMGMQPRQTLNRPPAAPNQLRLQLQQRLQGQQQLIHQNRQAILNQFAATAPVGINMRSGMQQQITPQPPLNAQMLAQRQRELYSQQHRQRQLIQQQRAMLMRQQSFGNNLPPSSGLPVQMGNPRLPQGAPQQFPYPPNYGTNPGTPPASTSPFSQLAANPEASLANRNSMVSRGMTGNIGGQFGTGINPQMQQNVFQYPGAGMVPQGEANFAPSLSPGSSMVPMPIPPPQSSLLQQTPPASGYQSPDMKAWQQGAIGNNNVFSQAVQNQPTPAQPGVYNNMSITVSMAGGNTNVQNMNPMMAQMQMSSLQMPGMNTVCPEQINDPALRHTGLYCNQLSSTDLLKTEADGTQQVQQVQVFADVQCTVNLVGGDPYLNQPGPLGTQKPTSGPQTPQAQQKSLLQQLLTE
UniProt Q13459: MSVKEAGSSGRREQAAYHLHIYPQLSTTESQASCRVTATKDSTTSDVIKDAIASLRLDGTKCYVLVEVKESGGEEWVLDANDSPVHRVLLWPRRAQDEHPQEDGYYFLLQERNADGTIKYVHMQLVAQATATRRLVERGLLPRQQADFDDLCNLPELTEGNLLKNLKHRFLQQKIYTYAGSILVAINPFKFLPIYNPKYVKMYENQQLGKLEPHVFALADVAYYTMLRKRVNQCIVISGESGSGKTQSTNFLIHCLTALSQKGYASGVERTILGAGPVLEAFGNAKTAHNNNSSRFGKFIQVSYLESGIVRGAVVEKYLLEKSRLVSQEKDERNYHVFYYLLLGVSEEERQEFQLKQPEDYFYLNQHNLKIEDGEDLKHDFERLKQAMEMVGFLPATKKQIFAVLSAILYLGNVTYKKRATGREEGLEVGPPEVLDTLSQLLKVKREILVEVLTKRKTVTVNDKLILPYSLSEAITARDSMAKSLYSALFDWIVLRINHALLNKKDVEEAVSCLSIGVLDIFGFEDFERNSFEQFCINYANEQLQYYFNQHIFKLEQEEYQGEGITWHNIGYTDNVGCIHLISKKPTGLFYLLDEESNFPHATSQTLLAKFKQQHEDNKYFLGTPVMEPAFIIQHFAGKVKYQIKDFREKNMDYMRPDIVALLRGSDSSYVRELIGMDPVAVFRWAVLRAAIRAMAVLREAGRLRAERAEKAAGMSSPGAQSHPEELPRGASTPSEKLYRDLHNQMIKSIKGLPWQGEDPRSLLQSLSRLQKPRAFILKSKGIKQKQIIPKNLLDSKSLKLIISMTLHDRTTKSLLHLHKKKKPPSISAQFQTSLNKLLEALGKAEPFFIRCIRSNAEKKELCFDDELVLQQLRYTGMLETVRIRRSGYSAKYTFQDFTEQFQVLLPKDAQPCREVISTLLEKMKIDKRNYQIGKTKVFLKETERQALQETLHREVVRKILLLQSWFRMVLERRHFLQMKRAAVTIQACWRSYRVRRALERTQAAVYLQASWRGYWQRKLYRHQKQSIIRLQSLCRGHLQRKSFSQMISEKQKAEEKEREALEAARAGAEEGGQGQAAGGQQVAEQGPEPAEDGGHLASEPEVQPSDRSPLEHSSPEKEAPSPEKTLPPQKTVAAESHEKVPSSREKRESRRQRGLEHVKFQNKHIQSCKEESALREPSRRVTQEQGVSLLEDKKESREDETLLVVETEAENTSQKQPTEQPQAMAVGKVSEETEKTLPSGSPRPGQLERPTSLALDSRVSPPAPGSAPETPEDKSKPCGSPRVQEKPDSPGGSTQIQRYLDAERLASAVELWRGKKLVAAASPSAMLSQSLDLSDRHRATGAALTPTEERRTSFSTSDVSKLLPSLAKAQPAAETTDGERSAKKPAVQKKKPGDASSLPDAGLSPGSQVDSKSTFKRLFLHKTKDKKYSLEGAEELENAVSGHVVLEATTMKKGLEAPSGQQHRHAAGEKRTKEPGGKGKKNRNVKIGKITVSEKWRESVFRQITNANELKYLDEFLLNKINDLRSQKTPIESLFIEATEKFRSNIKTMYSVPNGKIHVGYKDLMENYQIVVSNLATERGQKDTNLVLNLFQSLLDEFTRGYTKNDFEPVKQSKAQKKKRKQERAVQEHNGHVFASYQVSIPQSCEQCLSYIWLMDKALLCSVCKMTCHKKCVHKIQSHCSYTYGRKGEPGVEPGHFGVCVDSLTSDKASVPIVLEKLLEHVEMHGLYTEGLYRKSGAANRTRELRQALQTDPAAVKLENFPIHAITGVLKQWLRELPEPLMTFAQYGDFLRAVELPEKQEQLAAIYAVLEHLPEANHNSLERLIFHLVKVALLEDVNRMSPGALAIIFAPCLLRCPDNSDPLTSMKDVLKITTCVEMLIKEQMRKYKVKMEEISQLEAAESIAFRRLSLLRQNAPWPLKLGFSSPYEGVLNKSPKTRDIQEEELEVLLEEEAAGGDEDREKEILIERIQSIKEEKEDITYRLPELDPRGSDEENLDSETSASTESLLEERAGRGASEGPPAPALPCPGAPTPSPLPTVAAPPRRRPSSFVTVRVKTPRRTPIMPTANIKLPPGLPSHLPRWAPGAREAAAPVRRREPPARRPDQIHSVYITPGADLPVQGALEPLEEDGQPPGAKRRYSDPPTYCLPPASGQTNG

[1] = compound: C/C(=N\NC(=O)C1=CC(=CC=C1)S(=O)(=O)N2CCOCC2)/C3=C(C=CC(=C3)Cl)O
Method in brief: as §1

[2] = compound: C1=CC(=CC=C1C2=NC3=C(N2)C=C(C=C3)C(=O)N)OC4=CC=C(C=C4)Cl
Method in brief: as §1

[3] = compound: C1=CC2=C(C=CC(=C2)/C=C\3/C(=O)NC(=NCC4=CC=CS4)S3)N=C1
Method in brief: as §1

[4] = compound: C1=CC2=NC=CN=C2C=C1/C=C/3\C(=O)NC(=O)S3
Method in brief: as §1

[5] = compound: C1=CC=C(C=C1)C2=NC(=C(N2)C3=CC=NC=C3)C4=CC(=C(C=C4)Cl)O
Method in brief: as §1

[6] = compound: C1=CC=C2C(=C1)C3=NNC4=CC=CC(=C43)C2=O
Method in brief: as §1

[7] = compound: C1CCN(C1)C(=O)NC2=CC=CC(=C2)NC3=NC=C(C(=N3)NCCC4=CN=CN4)Br
Method in brief: as §1

[8] = compound: C1CN(CCC1(CC2=CC=C(C=C2)Cl)N)C3=NC=NC4=C3C=CN4
Method in brief: as §1

IRAK-1-4 Inhibitor I = compound: C1COCCN1CCN2C3=CC=CC=C3N=C2NC(=O)C4=CC(=CC=C4)[N+](=O)[O-] [IRAK-1-4 Inhibitor I]
Method in brief: as §1

ibrutinib = compound: C=CC(=O)N1CCC[C@@H](n2nc(-c3ccc(Oc4ccccc4)cc3)c3c(N)ncnc32)C1 [ibrutinib]
Method in brief: as §1

[9] = compound: CC(=O)c1cnc2ccc(-c3cc(Cl)c(O)c(Cl)c3)nc2c1N[C@H]1CC[C@H](CN(C)C)CC1
Method in brief: as §1

ralimetinib = compound: CC(C)(C)Cn1c(N)nc2ccc(-c3[nH]c(C(C)(C)C)nc3-c3ccc(F)cc3)nc21 [ralimetinib]
Method in brief: as §1

[10] = compound: CC(C)(O)CC(=O)NCCn1ccc2ncnc(Nc3ccc(Oc4cccc(C(F)(F)F)c4)c(Cl)c3)c21
Method in brief: as §1

[11] = compound: CC(C)C1=C2N=C(C=C(N2N=C1)NCC3=CC=CC=C3)NCCCCCCN
Method in brief: as §1

[12] = compound: CC1=C(C(CC(=O)N1)C2=CC=C(C=C2)C(F)(F)F)C(=O)NC3=C(C=C4C(=C3)C=NN4)F
Method in brief: as §1

[13] = compound: CC1=C(C2=C(C=C1)C(=O)C3=CC=CC=C3N2CCCN)C
Method in brief: as §1

[14] = compound: CC1=C(C=C(C=C1)NC(=O)C2=CC(=CC=C2)C(C)(C)C#N)NC3=CC4=C(C=C3)N=CN(C4=O)C
Method in brief: as §1

[15] = compound: CC1=C(C=C(C=C1)NC(=O)C2=CC(=CC=C2)N(C)C)NC(=O)C3=CC=C(C=C3)O
Method in brief: as §1

[16] = compound: CC1=CC=C(C=C1)SC2=C3C=C(SC3=CN=C2)C(=O)N
Method in brief: as §1

Target	log2 fold change (erlotinib)	log2 fold change [1]	log2 fold change [2]	log2 fold change [3]	log2 fold change [4]	log2 fold change [5]	log2 fold change [6]	log2 fold change [7]	log2 fold change [8]	log2 fold change (IRAK-1-4 Inhibitor I)	log2 fold change (ibrutinib)	log2 fold change [9]	log2 fold change (ralimetinib)	log2 fold change [10]	log2 fold change [11]	log2 fold change [12]	log2 fold change [13]	log2 fold change [14]	log2 fold change [15]	log2 fold change [16]
NAT1 (UniProt P18440)	inactive: 0.001	inactive: -0.011	inactive: -0.007	inactive: -0.136	inactive: -0.015	inactive: -0.011	active: 0.528	inactive: -0.021	inactive: 0.035	inactive: -0.013	inactive: -0.089	inactive: -0.039	inactive: 0.062	inactive: 0.019	inactive: -0.035	inactive: -0.001	inactive: -0.048	inactive: 0.034	inactive: 0.009	inactive: 0.052
MZT2A (UniProt Q6P582)	inactive: -0.082	inactive: -0.037	inactive: -0.098	inactive: 0.018	inactive: -0.058	inactive: -0.045	inactive: -0.073	inactive: 0.052	inactive: 0.015	inactive: -0.031	inactive: 0.069	inactive: 0.045	inactive: -0.05	inactive: 0.107	inactive: -0.072	inactive: 0.042	inactive: 0.048	inactive: -0.067	inactive: -0.101	inactive: 0.032
NAPA (UniProt P54920)	inactive: -0.012	inactive: -0.018	inactive: 0.008	inactive: 0.011	inactive: 0.034	inactive: 0.042	inactive: 0.006	inactive: 0.011	inactive: 0	inactive: -0.025	inactive: 0.016	inactive: -0.009	inactive: -0.017	inactive: 0.001	inactive: -0.02	inactive: -0.016	inactive: -0.02	inactive: 0.048	inactive: -0.024	inactive: -0.011
NCOR2 (UniProt C9J0Q5)	inactive: 0.044	inactive: 0.033	inactive: 0.04	inactive: -0.082	inactive: -0.008	inactive: 0.054	inactive: -0.173	inactive: -0.002	inactive: 0.049	inactive: 0.032	inactive: -0.002	inactive: -0.001	inactive: -0.026	inactive: -0.056	inactive: -0.034	inactive: 0.046	inactive: 0.022	inactive: -0.064	inactive: -0.014	inactive: -0.04
NAAA (UniProt Q02083)	inactive: 0.036	inactive: 0	inactive: 0.032	inactive: 0.012	inactive: 0.04	inactive: -0.021	inactive: 0.086	inactive: -0.146	inactive: -0.063	inactive: -0.014	inactive: 0.113	inactive: 0	inactive: -0.058	inactive: 0.02	inactive: 0.017	inactive: -0.058	inactive: 0.025	inactive: -0.058	inactive: 0.003	inactive: 0.019
MYL4 (UniProt P12829)	inactive: 0.009	inactive: 0.011	inactive: 0.041	inactive: 0.037	inactive: -0.02	inactive: 0.018	inactive: 0.027	inactive: 0.029	inactive: 0.074	inactive: 0.019	inactive: 0.114	inactive: -0.018	inactive: -0.006	inactive: -0.014	inactive: -0.005	inactive: -0.04	inactive: -0.015	inactive: 0.049	inactive: 0.037	inactive: -0.034
NCOA1 (UniProt Q15788)	inactive: 0.057	inactive: -0.011	inactive: 0.03	inactive: -0.072	inactive: -0.039	inactive: 0.027	inactive: 0.056	inactive: -0.016	inactive: -0.062	inactive: 0.042	inactive: -0.021	inactive: 0.006	inactive: 0.008	inactive: -0.042	inactive: 0.064	inactive: 0.027	inactive: -0.006	inactive: 0.009	inactive: -0.012	inactive: -0.054
MYO9B (UniProt Q13459)	inactive: 0.028	inactive: -0.072	inactive: -0.019	inactive: 0.027	inactive: -0.052	inactive: -0.019	inactive: -0.026	inactive: -0.019	inactive: -0.036	inactive: 0.002	inactive: 0.041	inactive: -0.004	inactive: 0.061	inactive: -0.005	inactive: 0.004	inactive: 0.03	inactive: -0.002	inactive: 0.005	inactive: 0.021	inactive: 0.003
